Measurements reported in patent US6140490.
For some of these results: The exact form of at least one protein or probe is not confirmed.

Chains of the proteins cited; added tags and fusions are not shown. A line that says so, or that is headed by a name, gives the form on record, which may keep a tag or linker.
Complement C3 (Homo sapiens), one chain, as listed by the source, chain 1 of 2: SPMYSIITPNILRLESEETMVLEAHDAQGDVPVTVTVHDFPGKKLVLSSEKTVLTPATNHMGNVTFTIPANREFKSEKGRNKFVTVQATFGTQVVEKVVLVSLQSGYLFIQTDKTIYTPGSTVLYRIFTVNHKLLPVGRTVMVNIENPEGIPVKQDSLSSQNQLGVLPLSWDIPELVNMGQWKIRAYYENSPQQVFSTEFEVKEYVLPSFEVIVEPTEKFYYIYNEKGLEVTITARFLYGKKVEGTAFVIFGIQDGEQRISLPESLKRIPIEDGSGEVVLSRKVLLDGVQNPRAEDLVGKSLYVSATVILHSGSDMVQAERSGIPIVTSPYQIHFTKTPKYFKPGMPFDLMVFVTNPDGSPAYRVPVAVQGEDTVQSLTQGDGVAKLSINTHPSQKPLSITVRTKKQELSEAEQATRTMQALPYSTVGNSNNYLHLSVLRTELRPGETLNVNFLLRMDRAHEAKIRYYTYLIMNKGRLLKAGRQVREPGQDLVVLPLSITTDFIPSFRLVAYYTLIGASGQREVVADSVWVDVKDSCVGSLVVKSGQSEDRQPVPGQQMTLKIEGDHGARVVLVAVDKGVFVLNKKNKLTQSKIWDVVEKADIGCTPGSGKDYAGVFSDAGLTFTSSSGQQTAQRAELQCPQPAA
Complement C5 (Rattus norvegicus), one chain, as listed by the source, chain 2 of 2: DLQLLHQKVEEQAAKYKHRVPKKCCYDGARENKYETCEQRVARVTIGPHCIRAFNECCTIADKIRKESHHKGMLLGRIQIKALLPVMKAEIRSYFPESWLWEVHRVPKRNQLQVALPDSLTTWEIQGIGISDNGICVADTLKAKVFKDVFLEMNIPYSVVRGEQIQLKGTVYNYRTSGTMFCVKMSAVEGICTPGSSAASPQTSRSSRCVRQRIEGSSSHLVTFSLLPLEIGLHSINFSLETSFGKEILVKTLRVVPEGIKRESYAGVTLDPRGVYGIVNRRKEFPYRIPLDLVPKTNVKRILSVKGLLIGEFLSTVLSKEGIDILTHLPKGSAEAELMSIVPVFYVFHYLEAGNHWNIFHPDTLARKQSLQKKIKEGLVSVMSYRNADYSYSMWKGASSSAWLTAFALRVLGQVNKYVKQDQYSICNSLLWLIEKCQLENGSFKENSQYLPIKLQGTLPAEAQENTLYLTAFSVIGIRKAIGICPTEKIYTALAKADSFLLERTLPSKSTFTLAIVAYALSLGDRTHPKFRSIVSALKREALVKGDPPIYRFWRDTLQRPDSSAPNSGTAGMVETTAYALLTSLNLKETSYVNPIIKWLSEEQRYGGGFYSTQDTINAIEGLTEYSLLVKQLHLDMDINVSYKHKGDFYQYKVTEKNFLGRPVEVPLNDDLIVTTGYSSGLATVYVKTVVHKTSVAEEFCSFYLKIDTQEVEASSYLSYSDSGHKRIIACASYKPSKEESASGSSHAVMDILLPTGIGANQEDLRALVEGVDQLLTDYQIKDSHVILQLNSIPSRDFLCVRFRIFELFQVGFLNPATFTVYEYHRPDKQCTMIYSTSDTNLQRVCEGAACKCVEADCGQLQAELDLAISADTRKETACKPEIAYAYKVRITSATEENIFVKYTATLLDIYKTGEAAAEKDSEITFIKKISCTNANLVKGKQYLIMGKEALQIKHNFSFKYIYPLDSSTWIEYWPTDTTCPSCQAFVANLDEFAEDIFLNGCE
Complement C3 (Homo sapiens), one chain, as listed by the source, chain 2 of 2: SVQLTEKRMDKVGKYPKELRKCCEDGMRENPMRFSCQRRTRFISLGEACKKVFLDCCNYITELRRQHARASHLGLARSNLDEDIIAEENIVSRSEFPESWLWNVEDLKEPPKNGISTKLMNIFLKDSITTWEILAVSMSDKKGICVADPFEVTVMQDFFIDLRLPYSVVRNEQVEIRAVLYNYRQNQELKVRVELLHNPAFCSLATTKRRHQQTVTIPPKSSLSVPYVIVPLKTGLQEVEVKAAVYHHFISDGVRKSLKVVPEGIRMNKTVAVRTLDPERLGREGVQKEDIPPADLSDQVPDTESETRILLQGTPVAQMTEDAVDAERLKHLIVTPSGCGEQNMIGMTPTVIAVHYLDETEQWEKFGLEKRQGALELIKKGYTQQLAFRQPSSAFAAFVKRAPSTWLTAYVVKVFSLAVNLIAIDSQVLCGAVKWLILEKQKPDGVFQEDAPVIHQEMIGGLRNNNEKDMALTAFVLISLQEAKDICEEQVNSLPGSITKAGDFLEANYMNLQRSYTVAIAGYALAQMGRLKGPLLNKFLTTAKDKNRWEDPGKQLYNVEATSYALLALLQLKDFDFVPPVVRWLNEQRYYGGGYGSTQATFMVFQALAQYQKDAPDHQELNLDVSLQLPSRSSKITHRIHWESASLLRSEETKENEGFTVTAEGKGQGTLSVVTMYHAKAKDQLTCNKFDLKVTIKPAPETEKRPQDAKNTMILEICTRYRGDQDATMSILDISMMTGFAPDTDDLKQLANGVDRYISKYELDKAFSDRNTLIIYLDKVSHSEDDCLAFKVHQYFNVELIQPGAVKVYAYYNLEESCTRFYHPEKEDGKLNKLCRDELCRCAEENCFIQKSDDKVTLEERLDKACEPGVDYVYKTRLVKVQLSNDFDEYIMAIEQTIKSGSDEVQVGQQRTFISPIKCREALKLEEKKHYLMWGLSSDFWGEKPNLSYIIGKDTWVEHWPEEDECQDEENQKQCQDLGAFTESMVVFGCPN
Complement C5 (Rattus norvegicus), one chain, as listed by the source, chain 1 of 2: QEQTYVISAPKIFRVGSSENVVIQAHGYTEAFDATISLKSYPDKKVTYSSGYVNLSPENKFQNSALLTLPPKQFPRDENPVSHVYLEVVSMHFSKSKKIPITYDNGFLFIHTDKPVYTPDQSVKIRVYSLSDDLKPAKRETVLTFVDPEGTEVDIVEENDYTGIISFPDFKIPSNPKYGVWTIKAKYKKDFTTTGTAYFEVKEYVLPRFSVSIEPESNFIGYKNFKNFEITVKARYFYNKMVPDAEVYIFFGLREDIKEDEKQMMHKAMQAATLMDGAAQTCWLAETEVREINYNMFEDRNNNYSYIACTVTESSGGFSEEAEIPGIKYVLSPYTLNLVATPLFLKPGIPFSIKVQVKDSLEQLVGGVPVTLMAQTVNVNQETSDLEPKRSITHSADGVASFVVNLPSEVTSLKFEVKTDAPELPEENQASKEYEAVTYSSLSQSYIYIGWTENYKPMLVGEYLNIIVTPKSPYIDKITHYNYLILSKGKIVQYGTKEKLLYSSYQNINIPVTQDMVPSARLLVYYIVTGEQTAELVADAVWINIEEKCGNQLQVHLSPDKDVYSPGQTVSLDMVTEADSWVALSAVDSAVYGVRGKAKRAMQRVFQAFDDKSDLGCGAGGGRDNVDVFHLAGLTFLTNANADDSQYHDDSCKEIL
Complement C5 (Homo sapiens), one chain, as listed by the source, chain 1 of 2: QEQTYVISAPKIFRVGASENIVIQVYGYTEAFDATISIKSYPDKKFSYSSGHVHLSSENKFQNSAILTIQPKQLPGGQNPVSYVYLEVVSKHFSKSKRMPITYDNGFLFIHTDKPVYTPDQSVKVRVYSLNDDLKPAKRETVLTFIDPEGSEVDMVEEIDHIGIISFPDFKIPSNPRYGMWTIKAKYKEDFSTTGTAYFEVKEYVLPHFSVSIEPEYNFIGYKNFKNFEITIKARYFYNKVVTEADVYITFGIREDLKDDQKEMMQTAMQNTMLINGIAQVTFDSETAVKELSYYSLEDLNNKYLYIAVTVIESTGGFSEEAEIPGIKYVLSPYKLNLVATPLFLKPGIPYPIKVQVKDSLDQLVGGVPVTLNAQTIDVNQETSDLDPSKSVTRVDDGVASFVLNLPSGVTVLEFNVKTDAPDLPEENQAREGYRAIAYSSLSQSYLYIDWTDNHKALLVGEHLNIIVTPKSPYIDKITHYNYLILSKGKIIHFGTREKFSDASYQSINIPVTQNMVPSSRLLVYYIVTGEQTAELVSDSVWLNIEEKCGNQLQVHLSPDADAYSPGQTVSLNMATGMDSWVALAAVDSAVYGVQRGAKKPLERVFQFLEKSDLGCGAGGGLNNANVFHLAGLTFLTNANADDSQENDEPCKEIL
Complement C5 (Homo sapiens), one chain, as listed by the source, chain 2 of 2: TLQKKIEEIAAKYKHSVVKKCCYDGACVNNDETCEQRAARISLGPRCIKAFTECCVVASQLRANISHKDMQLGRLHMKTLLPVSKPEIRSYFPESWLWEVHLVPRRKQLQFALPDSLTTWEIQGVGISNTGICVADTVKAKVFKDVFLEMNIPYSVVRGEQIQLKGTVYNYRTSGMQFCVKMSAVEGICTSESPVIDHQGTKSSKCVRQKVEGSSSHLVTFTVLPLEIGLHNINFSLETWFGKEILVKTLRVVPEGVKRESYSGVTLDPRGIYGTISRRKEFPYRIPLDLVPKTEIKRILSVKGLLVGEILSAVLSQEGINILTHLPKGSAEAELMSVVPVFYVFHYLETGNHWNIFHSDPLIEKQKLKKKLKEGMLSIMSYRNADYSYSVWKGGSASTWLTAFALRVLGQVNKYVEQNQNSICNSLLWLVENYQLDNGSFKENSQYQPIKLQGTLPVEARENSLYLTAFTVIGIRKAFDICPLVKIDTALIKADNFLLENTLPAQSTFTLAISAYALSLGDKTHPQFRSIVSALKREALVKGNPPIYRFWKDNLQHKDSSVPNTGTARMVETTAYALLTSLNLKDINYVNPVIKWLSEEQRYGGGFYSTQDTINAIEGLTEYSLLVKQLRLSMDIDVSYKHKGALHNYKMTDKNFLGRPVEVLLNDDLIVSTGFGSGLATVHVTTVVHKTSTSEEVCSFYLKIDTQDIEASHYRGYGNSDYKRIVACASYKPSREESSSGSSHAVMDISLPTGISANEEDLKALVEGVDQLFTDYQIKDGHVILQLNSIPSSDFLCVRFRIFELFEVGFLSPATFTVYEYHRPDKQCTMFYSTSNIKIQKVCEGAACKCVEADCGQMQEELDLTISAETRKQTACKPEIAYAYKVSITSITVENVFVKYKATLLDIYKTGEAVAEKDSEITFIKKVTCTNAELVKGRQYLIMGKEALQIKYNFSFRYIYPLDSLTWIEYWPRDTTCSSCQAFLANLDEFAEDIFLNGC

What was measured:
[1] = tested on: Complement C5 (Rattus norvegicus); experiment: SELEX; conditions: 2'-F C and U; purified native protein
[2] = tested on: Complement C5 (Homo sapiens); experiment: SELEX; conditions: 2'-F C and U, purified native protein, protein details: Quidel
[3] = tested on: Complement C5 (Homo sapiens); experiment: filter binding; conditions: 2'-F C and U; MgPBS, 37 C; range for the ligands; purified native protein; protein details: Quidel; label: 32P
[4] = tested on: Complement C5 (Homo sapiens); experiment: inhibition of the protein; conditions: 2'-F C and U, purified native protein, protein details: Quidel, dose not given here
[5] = tested on: Complement C3 (Homo sapiens); experiment: SELEX; conditions: 2'-F C and U [2'-F at all C and U]; selected sequence, no individual value; purified native protein; protein details: Quidel; letters built from the parent sequence and the stated change
[6] = tested on: Complement C1q (in serum); experiment: activity assay; conditions: PS; complement activation ELISA; C4d printed as -7.1; C1q dependence only suggested; protein in an extract; single-stranded DNA
[7] = Group I totally inhibits hemolysis, 1:40 human serum, 37 C, label: 32P

GGGAGGACGAUGCGGCUUCUGAAGAUUAUUUCGCGAUGUGAACUCCAGACCCCUCAGACGACUCGCCCGA [RtC5-100]
selection result [1]: selected

GGGAGGACGAUGCGGACGAAGAAGGUGGUGGAGGAGUUUCGUGCUCAGACGACUCGCCCGA [h11]
selection result ([2]; Group II): selected

GGGAGGACGAUGCGGGUCCUCGGGGAAAAUUUCGCGACGUGAACCUCAGACGACUCGCCCGA [RtC5-168]
selection result [1]: selected

GGGAGGACGAUGCGGCUUCUGAAGAUUAUUUCGCGAUGUGAACUUCAGACCCCUCAGACGACUCGCCCGA [RtC5-74]
selection result [1]: selected

GGGAGGACGAUGCGGUCCGGCGCGCUGAGUGCCGGUUAUCCUCGUCAGACGACUCGCCCGA [E5c/E11]
binding result [3]: binds
functional effect of the aptamer [4, 7]: active

GGGAGGACGAUGCGGUGAGCGUGGCAAACGGUUUCGAUAGAGCCUCAGACGACUCGCCCGA [h6]
selection result ([2]; Group II): selected

GGGAGGACGAUGCGGUGAGCGUGUAAAACGGUUUCGAUAGAGCCUCAGACGACUCGCCCGA [h8]
selection result ([2]; Group II): selected

GGGAGGACGAUGCGGUCUCAUGCGUCGAGUGUGAGUUUACCUUCGUCAGACGACUCGCCCGA [C6]
binding result [3]: binds

GGGAGGACGAUGCGGGUGACUCGAUAUCUUCCAAUCUGUACAUGGUCAGACGACUCGCCCGA [C3c 36]
selection result [5]: selected

GGGAGGACGAUGCGGUGAGCGUGUAAAACGGUUUCGAUAGAGCCUCAGACGACUCGCCCGA [C9]
binding result [3]: binds

GGGAGGACGAUGCGGGAGUUGUUCGGCAUUUAGAUCUCCGCUCCCUCAGACGACUCGCCCGA [g9]
selection result ([2]; Group II): selected

GGAGGGCGAUGGGGUGAGCGUGUAAAAGGUUGCGAUAGAGCCUCAGACGACUCGCCCGA [J1c]
selection result ([2]; Group II): selected

GGGAGGACGAUGCGGUCGGAUGCGCCGAGUCUCCGUUUACCUUCGUCAGACGACUCGCCCGA [h1]
selection result ([2]; Group I): selected

GGGAGGACGAUGCGGCGAUUACUGGGACGGACUCGCGAUGUGAGCCCAGACGACUCGCCCGA [RtC5-116]
selection result [1]: selected

GGGAGGACGAUGCGGUCUGCUACGCUGAGUGGCUGUUUACCUUCGUCAGACGACUCGCCCGA [g7]
selection result ([2]; Group I): selected

GGCGGGGCTACGTACCGGGGCTTTGTAAAACCCCGCC [phosphorothioate oligonucleotide SEQ ID NO:156]
functional effect [6]: 32.4 µg Bb

GGGAGGACGAUGCGGGUAUCUUAUCUUGUUUUCGUUUUUCUGCCCUCAGACGAUCGCCCGA [d6]
selection result ([2]; Group II): selected

GGGAGGACGAUGCGGUGGGCGUCAGCAUUUCGAUCUUCGGCACCUCAGACGACUCGCCCGA [C12]
selection result ([2]; Group II): selected

GGGAGGACGAUGCGGUCUCAUGCGCCGAGUGUGAGUUUACCUUCGUCAGACGACUCGCCCGA [F8]
binding result [3]: binds
functional effect of the aptamer [4, 7]: active

GGGAGGACGAUGCGGUGAGCGCGUAUAGCGGUUUCGAUAGAGCUGCGUCAGACGACUCGCCCGA [f11]
selection result ([2]; Group II): selected

GGGAGGACGAUGCGGUCCGGCGCGCUGAGUGCCGGUUUAUCCUCGUCAGACGACUCGCCCGA [A6]
binding result [3]: binds
functional effect of the aptamer [4, 7]: active

GGGAGGACGAUGCGGUUUGUGAUUUGGAAGUGGGGGGGAUAGGGUCAGACGACUCGCCCGA [d3]
selection result ([2]; Group II): selected

GGGAGGACGAUGCGGCGAUUACUGGGACAGACUCGCGAUGUGAGCUCAGACGACUCGCCCGA [RtC5-39]
selection result [1]: selected

GGGAGGACGAUGCGGAGGGUUCUUUUCAUCUUCUUUCUUUCCCCUCAGACGACUCGCCCGA [e8x]
selection result ([2]; Group II): selected

GGGAGGACGAUGCGGUUUCGAUAGAGACUUACAGUUGAGCGCGGUCAGACGACUCGCCCGA [f4]
selection result ([2]; Group II): selected

GGGAGGACGAUGCGGGGCUUCUCACAUAUUCUUCUCUUUCCCCGUCAGACGACUCGCCCGA [E9c]
selection result ([2]; Group II): selected

GGGAGGACGAUGCGGUGAGCGCGUAUAGCGGUUUCGAUAGAGCCUCAGACGACUCGCCCGA [h2]
selection result ([2]; Group II): selected

GGGAGGACGAUGCGGCGAUUACUGGGACAGACUCGCGAUGUGAGCUCAGACGACUCGCCCGA [RtC5-95]
selection result [1]: selected

GGGAGGACGAUGCGGCGACUACUGGGAAGGGUCGCGAAGUGAGCCCAGACGACUCGCCCGA [RtC5-69]
selection result [1]: selected

GGGAGGAGGAUCGGUGUUCAGCAUUCAGAUCUUCAGACGACUCGCCCGA [E4]
binding result [3]: binds

GGGAGGACGAUGCGGUGAGCGUGGCAAACGGUUUCGAUAGAGCCUCAGACGACUCGCCCGA [f9]
selection result ([2]; Group II): selected

GACGAUGCGGUCUCAUGCGUCGAGUGUGAGUUUACCUUCGUC [truncated C5 ligand (FIG. 3)]
functional effect of the aptamer ([4]; inhibits total hemolytic complement activity): active

GGAGGACGAUGCGGGGCCUAAAGUCAAGUGAUCAUCCCCUGCGUCAGACGACUCGCCCGA [c3-8c]
selection result [5]: selected

GGGAGGACGAUGCGGGCAAAGUUCGGCAUUCAGAUCUCCAUGCCCUCAGACGACUCGCCCGA [f7]
selection result ([2]; Group II): selected

GGGAGGACGAUGCGGUGUUCACCAUUCAGAUCUUCACGUGUCGUCAGACGACUCGCCCGA [f6]
selection result ([2]; Group II): selected

GGGAGGACGAUGCUGUUCAGCAUUCAGAUCUUCACGUGUGUCAGACGACUCGCCCGA [d9]
selection result ([2]; Group II): selected

GGGAGGACGAUGCGGACGAAGAAGGGGGUGGAGGAGUUUCGUGCUCAGACGACUCGCCCGA [g10]
selection result ([2]; Group II): selected

GGGAGGACGAUGCGGUCUCAUGCGUCGAGUGUGAGUUUAACUGCGUCAGACGACUCGCCCGA [K7]
functional effect of the aptamer ([4]; Group I totally inhibits hemolysis, 1:40 human serum, 37 C): active
selection result ([2]; Group I): selected

GGGAGGACGAUGCGGCGACUACUGGGAGAGUACGCGAUGUGUGCCCAGACGACUCGCCCGA [RtC5-146]
selection result [1]: selected
